# Results taken from PubChem BioAssay AID720533 (National Center for Advancing Translational Sciences (NCATS), 2013).
# “And” between values parts separate entries of the source, which are not always exact repeats. Equal entries are not always repeated. The whole screen tested about 18,000 compounds, of which about 750 (4.2%) were called active. The shares of active, inactive and inconclusive entries below differ from those in the screen. Calls come from the whole dose curve; tested in HEK293 cells. Potencies of inconclusive entries are doubtful fits and often do not repeat.
# Assay: qHTS for Inhibitors of binding or entry into cells for Lassa Virus
# Details: Lassa virus pseudotyped entry inhibition, cell-based qHTS; activity change, negative = inhibition: at 49.2 µM (top of the series) unless noted
# % is set by controls: 0 for no effect and ±100 for the full control effect; potency is the fitted concentration of half-maximal effect.
SMILES,Potency,"activity change, negative = inhibition"
CN1CCN2c3ccccc3Cc3ccccc3C2C1 (stereo not given),"inconclusive: 35.5 µM [inhibitor, single point]",
[N-]=[N+]=Nc1nc2c(N)ncnc2n1C1OC(CO)C(O)C1O (stereo not given),"inconclusive: 22.4 µM [inhibitor, single point]",
Cc1ccc(-c2ccc(C(=O)NCc3ccc(Cl)cc3)o2)c2ccccc12,"inconclusive: 3.15 µM [inhibitor, full curve, poor fit]",
N[C@@H](Cc1ccc(O)c(O)c1)C(=O)O,"inconclusive: 35.5 µM [inhibitor, single point]",
CCc1ccc(OCc2ccccc2C(=O)Nc2ccc3nc(C)cc(N)c3c2)cc1,active: 7.08 µM,
Cc1ncc2c(c1CNC(=O)c1cncs1)CCN(C(=O)c1ccc(-c3ccccc3)cc1)C2,"inconclusive: 11.2 µM [inhibitor, partial curve]",
O=C(OC1CNC(C#Cc2cc3ncnc(Nc4ccc(Cc5ccccc5)cc4)c3s2)C1)N1CCOCC1 (stereo not given),"inconclusive: 2.5 µM [inhibitor, full curve, poor fit]",
CC[C@]12CCCN3CCc4c(n(c5ccccc45)C(=O)C1)[C@H]32,"inconclusive: 7.08 µM [inhibitor, full curve, poor fit]",
CCOC(=O)N1CCN(Cc2ccc3c(c2)CN(C(=O)c2ccc(C#CC(C)(C)O)o2)CCO3)CC1,"inconclusive: 17.8 µM [inhibitor, partial curve]",
O=C1Nc2ccccc2C2(CCN(CCc3ccc(C(F)(F)F)cc3)CC2)O1,"inconclusive: 20 µM [inhibitor, single point]",
CC(=Nc1ccccc1N)c1c(C)cc(=O)n(O)c1O,inactive,
Cc1ccc(Nc2nccc(N(C)c3ccc4c(C)n(C)nc4c3)n2)cc1S(N)(=O)=O,,inconclusive: -34.5% [inhibitor]
COc1ccccc1CNc1ncnc2ccc(-c3ccc(N(C)C)cc3)cc12,"inconclusive: 25.1 µM [inhibitor, single point]",
CCC1=CC2CN3CCc4c([nH]c5ccccc45)[C@@](C(=O)OC)(C2)[C@@H]13,"inconclusive: 7.94 µM [inhibitor, partial curve, poor fit]",
OCCCNCc1cc2ccc(F)cc2nc1N1CCN(c2cccc(Cl)c2)CC1,"inconclusive: 35.5 µM [inhibitor, single point]",
CC(C)(Cc1c[nH]c2ccccc12)NCC(O)COc1ccccc1C#N (stereo not given),"inconclusive: 35.5 µM [inhibitor, single point]",
OC(CCN1CCCCC1)(c1ccccc1)c1ccccc1,"inconclusive: 35.5 µM [inhibitor, single point]",
CC(=O)Oc1ccc(C2(c3ccc(OC(C)=O)cc3)Oc3ccccc3NC2=O)cc1,active: 10 µM,
CCOC(CN1CCN(CC(C)C(=O)c2ccccc2)CC1)c1ccccc1 (stereo not given),"inconclusive: 39.8 µM [inhibitor, partial curve, poor fit]",
CCCCN1CCC[C@@H]1CNC(=O)c1cc(C#N)c2ccccc2c1OC,"inconclusive: 39.8 µM [inhibitor, single point]",

# 3 neighbouring records from above, quoted:
SMILES,Potency,"activity change, negative = inhibition"
OCCCNCc1cc2ccc(F)cc2nc1N1CCN(c2cccc(Cl)c2)CC1,"inconclusive: 35.5 µM [inhibitor, single point]",
CC(C)(Cc1c[nH]c2ccccc12)NCC(O)COc1ccccc1C#N (stereo not given),"inconclusive: 35.5 µM [inhibitor, single point]",
OC(CCN1CCCCC1)(c1ccccc1)c1ccccc1,"inconclusive: 35.5 µM [inhibitor, single point]",

# Carrying on:

SMILES,Potency,"activity change, negative = inhibition"
CNC(=O)C[C@H]1C(=O)N(Cc2ccccc2)C[C@@H]1C,inactive,
CCc1cc(Cl)c(OC)c(C(=O)NC[C@@H]2CCCN2CC)c1O,"inconclusive: 31.6 µM [inhibitor, partial curve] and inconclusive: 17.8 µM [inhibitor, partial curve, poor fit]",
CCCCS(=O)(=O)N1CCc2nc(-c3ccccc3)c3c(c2C1)CO[C@@H](C)C3,,inactive: -3.38% [at 8.59 µM]
O=C(O)C(Cc1cc(I)c(O)c(I)c1)c1ccccc1 (stereo not given),"inconclusive: 3.55 µM [inhibitor, full curve, poor fit]",
C=CCN1CC(COCCCC)Oc2ccc(Cl)cc2S1(=O)=O (stereo not given),inactive,
CC(C)=CCCC1(C)C=Cc2c(O)c3c(c(CC=C(C)C)c2O1)OC12C(=CC4CC1C(C)(C)OC2(C/C=C(/C)C(=O)O)C4=O)C3=O (stereo not given),active: 5.01 µM,
COC(=O)C1=C(C)N(CC2CC2)C(=O)NC1c1ccc(Br)cc1 (stereo not given),,inactive: -8.39% [at 8.59 µM]
COC(=O)N1CCN(C(=O)Cc2ccc(Cl)c(Cl)c2)C(CN2CCCC2)C1 (stereo not given),inactive,
Cc1cc(=O)c2c(O)cc(O)c(C)c2o1,inactive,
CCOc1nc2cccc(C(=O)O)c2n1Cc1ccc(-c2ccccc2-c2nn[nH]n2)cc1,"inconclusive: 35.5 µM [inhibitor, partial curve, poor fit]",
CS(=O)(=O)c1ccc(-c2cccc3c2OC(CNC(=O)c2cc(C4CC4)[nH]n2)C3)cc1 (stereo not given),"inconclusive: 22.4 µM [inhibitor, partial curve, poor fit]",
Cc1nnc2n1-c1sc(Br)cc1C(c1ccccc1Cl)=NC2,"inconclusive: 4.47 µM [inhibitor, full curve, poor fit]",
O=C(c1cnsn1)N1CCOc2ccc(CN3CCOCC3)cc2C1,inactive,
CC[N+](C)(CC)CCC[n+]1c(-c2ccccc2)c2cc(N)ccc2c2ccc(N)cc21,active: 3.16 µM,
O=C(O)c1ccccc1Nc1cccc(C(F)(F)F)c1,"inconclusive: 35.5 µM [inhibitor, single point]",
CN1CCCCC1Cn1cc(C(=O)c2cc([N+](=O)[O-])ccc2I)c2ccccc21 (stereo not given),"inconclusive: 35.5 µM [inhibitor, single point]",
COc1ccc(CCCO[C@@H](Cn2ccnc2)c2ccc(OC)cc2)cc1,inactive,
Clc1ccc(C(c2ccccc2Cl)C(Cl)Cl)cc1 (stereo not given),"inconclusive: 35.5 µM [inhibitor, single point]",
N#Cc1nn(-c2c(Cl)cc(C(F)(F)F)cc2Cl)c(N)c1S(=O)C(F)(F)F (stereo not given),"inconclusive: 31.6 µM [inhibitor, single point] and inconclusive: 35.5 µM [inhibitor, single point]",
Cc1cccc(C)c1OCC(=O)N[C@@H](Cc1ccccc1)[C@@H](O)C[C@H](Cc1ccccc1)NC(=O)[C@H](C(C)C)N1CCCNC1=O,"inconclusive: 31.6 µM [inhibitor, partial curve]",
